Some results were stated once for a whole list of compounds, not compound by compound. For some of these results: At least one structure is not confirmed: it was looked up by name or label, or the drawing left a doubt. Some compounds share one range, which may span the group rather than tell each member.
How the values were obtained:
[1] = test system: Human umbilical vein endothelial cell (HUVEC); experiment: Proliferation inhibition of human umbilical vein endothelial cells (SRB); type: cell-based; details: 48 hours
[2] = test system: multiple in vitro cultured tumor cells; experiment: Antitumor activity evaluation, comparison over multiple in vitro cultured tumor cells; type: cell-based
[3] = test system: S180 sarcoma transplanted tumor; experiment: Tumor-inhibiting rate experiment, intravenous injection, S180 sarcoma transplanted tumor in mice; type: in vivo; details: 50 mg/kg intravenously, d0-d12 seven times, tumor weight
Procedure: After 1 week for adaptation, mice are subcutaneously inoculated with S180 sarcoma tissues and randomly grouped after the tumor grows as much as the area of 100 to 300 mm^3; every compound is used for 6 mice in drug administered group and for 12 mice in control group, the administration doses are as below: 25, 50 mg/kg of ECB1P, ECB1GN hydrochloride, ECB1SN hydrochloride and positive controls ECA4P, ECA4GN hydrochloride, as well as 50, 100 mg/kg of positive controls CB1GA hydrochloride, CB1P and CA4P, the administration is given intravenously on Day d0, d2, d4, d6, d8, d10 and d12, seven times in total, measurement of tumor volume, mice weighing and data recording are performed three times every week, the mice are executed on the fourtheenth day after inoculation, tumor tissues are weighed to calculate the tumor-inhibiting rate, tumor weight inhibiting rate %=(1−average tumor weight in treatment group/average tumor weight in control group)×100%.

Row | SMILES | antitumor activity, times stronger than CA4, CB1 and CB1N [2] [times] | also measured
1 | COc1ccc(CCc2cc(OC)c(OC)c(OC)c2)cc1N [CB1N, 3,4,5-trimethoxy-3′-amino-4′-methoxydiphenylethane] |  | IC50 [1]: 4.8 to 7.7 nM
2 | CCOc1ccc(/C=C\c2cc(OC)c(OC)c(OC)c2)cc1O [ECA4, (Z)-3,4,5-trimethoxy-3′-hydroxy-4′-ethoxydiphenylethylene] | 10 to 200 | 
3 | CCOc1ccc(/C=C\c2cc(OC)c(OC)c(OC)c2)cc1NC(=O)CN.Cl [ECA4GN hydrochloride, (Z)-3,4,5-trimethoxy-3′-glycylamino-4′-ethoxydiphenylethane] |  | Tumor-inhibiting rate (%) [3]: over 60%
4 | CCOc1ccc(/C=C\c2cc(OC)c(OC)c(OC)c2)cc1N [ECA4N, (Z)-3,4,5-trimethoxy-3′-amino-4′-ethoxydiphenylethylene] | 10 to 200 | 

Reference: patent publication US8686187B2, “Ethoxy diphenyl ethane derivatives, preparation processes and uses thereof” (Shanghai Ecust Biomedicine Co., Ltd., priority 2008, dated 2014)
